No constants are given. Whether binding was seen depends on the method and setting. Some entries that bind do so weakly or less than the wild type.

Protein sequences, listed by entry. Tags and fused reporters are not part of them. Residues count along the entry.
UniProt P05231, residues 30-212: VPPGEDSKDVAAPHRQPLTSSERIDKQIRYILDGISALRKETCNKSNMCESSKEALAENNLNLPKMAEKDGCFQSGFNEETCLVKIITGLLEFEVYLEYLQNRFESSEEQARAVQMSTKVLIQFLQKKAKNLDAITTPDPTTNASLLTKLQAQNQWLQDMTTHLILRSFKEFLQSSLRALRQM

This note sets out measurements from patent publication CN112778416A.

In test [1] the target is 白介素-6 (IL-6) (UniProt P05231). The experiment in a line: SPR, IL-6 amine-coupled to CM5 chip, nanobody injected. In general terms: Surface plasmon resonance follows binding to a sensor surface in real time, without labels.
Test [2] concerns the target 白介素-6 (IL-6) (UniProt P05231). As to the kind of experiment: SPR, IL-6 amine-coupled to CM5 chip, bivalent polypeptide injected.

B1: 人源化纳米抗体hCNb20-1 (VHH)
VHH: EVQLVESGGGSVQAGGSLRLSCAASSGILEIFNAMSWFRQAPGKEREWVSAIMGSPYGSTEYYADSVKGRFTFSQDNAKNTVYLQMDSLRPEDTATYYCHSAGYDPRGDDYWGQGTLVTVSS
Take B1: the binding entry in test [1] is listed as “binds”.

B2: 二价多肽 SEQ ID NO 18 (VHH)
chain: QVQLVESAGGLVQPGGSLRLSCAASGRFTGGSPMGWYRQAPGKRRELVADIMGRGGSNTYADSVKGRFTISRDNAKNTVYLQMNSLKPEDTAVYYCAEAERVSGLLLEVVAEPRGDDYWGQGTQVTVSSGGGGSGGGGSGGGGSQVQLVESAGGLVQPGGSLRLSCAASGRFTGGSPMGWYRQAPGKRRELVADIMGRGGSNTYADSVKGRFTISRDNAKNTVYLQMNSLKPEDTAVYYCAEAERVSGLLLEVVAEPRGDDYWGQGTQVTVSS
Take B2: the binding result in test [2] is “binds”.

B3: 二价多肽bvCNb20-1 (VHH)
chain: QVQLQESGGGSVQAGGSLRLSCAASSGILEIFNAMAWFRQAPGKEREWVARIMGSPYGSTEYYADSVKGRFTFSQDNAKNTVYLQMDSLEPEDTATYYCHSAGYDPRGDDYWGQGTQVTVSSGGGGSGGGGSGGGGSQVQLQESGGGSVQAGGSLRLSCAASSGILEIFNAMAWFRQAPGKEREWVARIMGSPYGSTEYYADSVKGRFTFSQDNAKNTVYLQMDSLEPEDTATYYCHSAGYDPRGDDYWGQGTQVTVSS
On to B3, for which the binding entry in test [2] was “binds”.
